No constants are given. Whether binding was seen depends on the method and setting. In cells and extracts the contact can be indirect. Some entries that bind do so weakly or less than the wild type. Sequences can lack the tags named with a protein.
Molecular target: T1, NSF-tagged PPP2R2B (UniProt Q00005)
T1 sequence: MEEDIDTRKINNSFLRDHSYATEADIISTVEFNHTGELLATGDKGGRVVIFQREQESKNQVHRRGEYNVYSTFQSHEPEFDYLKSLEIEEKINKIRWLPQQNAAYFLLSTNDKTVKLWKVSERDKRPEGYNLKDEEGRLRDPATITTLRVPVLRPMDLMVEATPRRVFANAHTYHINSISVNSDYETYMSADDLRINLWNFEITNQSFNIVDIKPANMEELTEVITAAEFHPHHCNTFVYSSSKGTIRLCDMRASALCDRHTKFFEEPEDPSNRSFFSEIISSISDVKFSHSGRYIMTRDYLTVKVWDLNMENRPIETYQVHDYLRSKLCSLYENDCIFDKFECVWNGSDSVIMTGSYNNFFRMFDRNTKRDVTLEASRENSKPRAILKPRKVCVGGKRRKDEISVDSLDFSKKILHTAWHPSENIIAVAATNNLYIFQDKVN
Assay: pull-down; NSF-tagged B subunit co-expressed with myc-tagged PPP2CA constructs in HEK293; lysate (50 mM Tris-HCl 7.5, 150 mM NaCl, 1 mM EDTA, 2.5 mM EGTA, 1% NP-40) on streptavidin beads for 4 h, washed three times; western blot

Chains of the proteins cited; added tags and fusions are not shown. Lines headed by an entry give the natural chain unless they say otherwise; changes in a name come on top.
UniProt P67775: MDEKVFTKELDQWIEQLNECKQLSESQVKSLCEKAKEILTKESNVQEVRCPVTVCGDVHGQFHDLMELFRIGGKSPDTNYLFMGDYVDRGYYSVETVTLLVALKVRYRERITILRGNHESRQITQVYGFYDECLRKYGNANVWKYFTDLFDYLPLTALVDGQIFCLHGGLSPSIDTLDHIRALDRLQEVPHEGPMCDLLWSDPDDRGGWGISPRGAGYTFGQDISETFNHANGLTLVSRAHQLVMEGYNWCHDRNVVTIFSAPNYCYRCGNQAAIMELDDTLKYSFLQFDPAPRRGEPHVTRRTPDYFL

Row | binding | Substance
1 | binds | myc-tagged T304A-PPP2CA (from UniProt P67775 1-309) (enzyme)
2 | binds | myc-tagged WT-PPP2CA (from UniProt P67775 1-309) (enzyme)

Source: article PMC13212363
